Among the targets are YY1 (human) (UniProt P25490); CSK21 (human) (UniProt P68400); CSK22 (human) (UniProt P19784); RING1 (human) (UniProt Q06587); PCGF5 (human) (UniProt Q86SE9); CBX8 (human) (UniProt Q9HC52); RING2 (human) (UniProt Q99496).
Common to all, as to assay: affinity purification with mass spectrometry
Another assay deals with T1, PCGF6 (human) (UniProt Q9BYE7).
T1 sequence: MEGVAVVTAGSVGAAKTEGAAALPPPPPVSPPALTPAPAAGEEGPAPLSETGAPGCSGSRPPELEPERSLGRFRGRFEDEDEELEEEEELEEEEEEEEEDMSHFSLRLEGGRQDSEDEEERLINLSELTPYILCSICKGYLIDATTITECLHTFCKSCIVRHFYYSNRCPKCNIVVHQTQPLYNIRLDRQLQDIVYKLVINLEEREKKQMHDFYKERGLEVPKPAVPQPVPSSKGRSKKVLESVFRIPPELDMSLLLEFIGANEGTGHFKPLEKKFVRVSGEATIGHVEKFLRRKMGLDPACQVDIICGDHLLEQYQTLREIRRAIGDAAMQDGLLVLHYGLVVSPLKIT

Amino acid sequences for entries named in this document (tags omitted).
UniProt P25490: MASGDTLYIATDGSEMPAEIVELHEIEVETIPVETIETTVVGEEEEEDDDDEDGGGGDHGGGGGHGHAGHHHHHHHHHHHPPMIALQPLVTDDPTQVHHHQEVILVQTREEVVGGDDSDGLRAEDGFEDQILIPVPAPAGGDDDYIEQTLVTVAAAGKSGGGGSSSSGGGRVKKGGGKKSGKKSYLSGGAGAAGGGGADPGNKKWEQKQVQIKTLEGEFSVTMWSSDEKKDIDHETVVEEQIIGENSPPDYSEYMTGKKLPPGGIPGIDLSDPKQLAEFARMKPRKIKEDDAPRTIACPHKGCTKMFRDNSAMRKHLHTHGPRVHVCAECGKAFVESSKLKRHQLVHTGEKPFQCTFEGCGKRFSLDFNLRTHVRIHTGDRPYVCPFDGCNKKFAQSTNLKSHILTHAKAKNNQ
UniProt P68400: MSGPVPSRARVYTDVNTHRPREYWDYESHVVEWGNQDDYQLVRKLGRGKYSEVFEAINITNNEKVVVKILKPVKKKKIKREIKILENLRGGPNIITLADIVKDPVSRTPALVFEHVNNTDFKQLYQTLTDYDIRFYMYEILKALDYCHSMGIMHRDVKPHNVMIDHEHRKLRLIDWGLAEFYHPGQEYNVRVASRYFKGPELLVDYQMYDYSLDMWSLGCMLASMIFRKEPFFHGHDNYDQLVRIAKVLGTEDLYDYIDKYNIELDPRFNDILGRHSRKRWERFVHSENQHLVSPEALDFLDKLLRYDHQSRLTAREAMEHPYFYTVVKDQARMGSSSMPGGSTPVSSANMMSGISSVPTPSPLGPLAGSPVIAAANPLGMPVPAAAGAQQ
UniProt Q06587: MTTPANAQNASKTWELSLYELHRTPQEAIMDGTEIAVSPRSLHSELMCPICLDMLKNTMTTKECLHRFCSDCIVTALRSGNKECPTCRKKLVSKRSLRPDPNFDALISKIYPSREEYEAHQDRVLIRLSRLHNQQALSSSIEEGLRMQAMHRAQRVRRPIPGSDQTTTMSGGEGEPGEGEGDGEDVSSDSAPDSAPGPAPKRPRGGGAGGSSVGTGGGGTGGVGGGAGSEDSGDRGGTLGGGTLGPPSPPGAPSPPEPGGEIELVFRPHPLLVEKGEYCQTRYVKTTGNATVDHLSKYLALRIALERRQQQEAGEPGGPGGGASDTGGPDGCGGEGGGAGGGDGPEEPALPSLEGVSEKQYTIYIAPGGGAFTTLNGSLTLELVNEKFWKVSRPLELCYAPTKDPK
UniProt Q86SE9: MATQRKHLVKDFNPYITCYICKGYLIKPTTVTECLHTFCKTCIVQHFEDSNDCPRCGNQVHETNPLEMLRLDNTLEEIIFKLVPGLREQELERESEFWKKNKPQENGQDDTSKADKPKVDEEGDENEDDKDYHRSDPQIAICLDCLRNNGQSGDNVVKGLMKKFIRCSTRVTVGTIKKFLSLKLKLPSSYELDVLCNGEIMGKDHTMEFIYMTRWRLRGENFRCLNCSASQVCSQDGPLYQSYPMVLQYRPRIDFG
UniProt Q9HC52: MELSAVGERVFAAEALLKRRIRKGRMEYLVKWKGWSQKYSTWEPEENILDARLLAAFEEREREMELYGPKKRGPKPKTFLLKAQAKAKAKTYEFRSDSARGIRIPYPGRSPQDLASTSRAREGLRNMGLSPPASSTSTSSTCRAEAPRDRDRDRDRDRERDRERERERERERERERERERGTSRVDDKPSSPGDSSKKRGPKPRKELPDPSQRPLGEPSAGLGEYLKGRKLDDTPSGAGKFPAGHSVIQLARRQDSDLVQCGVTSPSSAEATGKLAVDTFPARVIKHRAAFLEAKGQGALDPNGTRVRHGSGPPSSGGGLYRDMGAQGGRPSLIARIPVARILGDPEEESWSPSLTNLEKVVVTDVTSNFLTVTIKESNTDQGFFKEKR
UniProt Q99496: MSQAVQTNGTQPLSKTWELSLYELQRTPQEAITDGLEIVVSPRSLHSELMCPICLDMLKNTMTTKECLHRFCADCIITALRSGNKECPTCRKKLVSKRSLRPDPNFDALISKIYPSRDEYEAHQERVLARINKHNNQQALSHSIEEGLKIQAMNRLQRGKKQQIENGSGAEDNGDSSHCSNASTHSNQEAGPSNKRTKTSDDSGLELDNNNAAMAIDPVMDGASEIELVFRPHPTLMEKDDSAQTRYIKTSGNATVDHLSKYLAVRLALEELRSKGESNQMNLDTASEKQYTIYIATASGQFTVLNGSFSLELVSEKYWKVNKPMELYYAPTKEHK

The target of a further assay is T2, YAF2 (human) (UniProt Q8IY57).
T2 sequence: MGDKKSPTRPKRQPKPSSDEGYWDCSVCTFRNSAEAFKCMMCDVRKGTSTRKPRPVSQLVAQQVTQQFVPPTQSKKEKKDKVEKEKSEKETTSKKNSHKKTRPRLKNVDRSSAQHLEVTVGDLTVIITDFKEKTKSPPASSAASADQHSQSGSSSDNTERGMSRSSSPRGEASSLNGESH

A further assay addresses T3, PCGF3 (human) (UniProt Q3KNV8).
T3 sequence: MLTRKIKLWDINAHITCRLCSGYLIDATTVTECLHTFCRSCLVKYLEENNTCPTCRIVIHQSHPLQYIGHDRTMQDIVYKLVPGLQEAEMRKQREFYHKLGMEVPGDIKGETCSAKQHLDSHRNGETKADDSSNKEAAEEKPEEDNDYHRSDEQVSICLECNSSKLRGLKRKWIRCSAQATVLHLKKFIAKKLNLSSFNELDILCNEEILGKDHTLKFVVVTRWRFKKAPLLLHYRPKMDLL

The next assay deals with T4, CBX4 (human) (UniProt O00257).
T4 sequence: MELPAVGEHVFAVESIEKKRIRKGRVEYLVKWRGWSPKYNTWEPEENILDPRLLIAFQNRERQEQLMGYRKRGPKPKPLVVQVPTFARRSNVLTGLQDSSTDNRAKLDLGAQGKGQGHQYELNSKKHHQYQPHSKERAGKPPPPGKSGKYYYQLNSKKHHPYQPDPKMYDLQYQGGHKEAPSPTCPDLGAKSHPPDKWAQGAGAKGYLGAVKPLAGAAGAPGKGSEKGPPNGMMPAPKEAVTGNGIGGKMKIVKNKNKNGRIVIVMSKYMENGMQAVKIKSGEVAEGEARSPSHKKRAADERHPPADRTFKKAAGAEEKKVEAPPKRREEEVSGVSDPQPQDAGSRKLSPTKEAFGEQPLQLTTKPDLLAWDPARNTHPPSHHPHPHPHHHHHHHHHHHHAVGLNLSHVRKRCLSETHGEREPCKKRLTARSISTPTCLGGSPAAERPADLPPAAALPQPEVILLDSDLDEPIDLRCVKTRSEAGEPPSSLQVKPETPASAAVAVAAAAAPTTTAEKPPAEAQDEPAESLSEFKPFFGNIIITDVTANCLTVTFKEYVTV

A further assay addresses T5, CBX6 (human) (UniProt O95503).
T5 sequence: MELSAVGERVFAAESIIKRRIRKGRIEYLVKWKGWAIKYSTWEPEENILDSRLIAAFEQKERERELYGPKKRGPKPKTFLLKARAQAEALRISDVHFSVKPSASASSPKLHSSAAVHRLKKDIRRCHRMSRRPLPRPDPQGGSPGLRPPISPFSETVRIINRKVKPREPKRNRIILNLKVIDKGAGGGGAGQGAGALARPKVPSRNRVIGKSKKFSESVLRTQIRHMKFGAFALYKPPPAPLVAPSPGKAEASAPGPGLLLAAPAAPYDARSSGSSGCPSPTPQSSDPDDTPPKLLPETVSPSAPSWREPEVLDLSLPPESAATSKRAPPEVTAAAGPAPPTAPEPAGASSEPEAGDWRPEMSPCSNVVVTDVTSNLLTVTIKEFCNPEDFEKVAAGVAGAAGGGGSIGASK

A further assay concerns the target T6, RYBP (human) (UniProt Q8N488).
T6 sequence: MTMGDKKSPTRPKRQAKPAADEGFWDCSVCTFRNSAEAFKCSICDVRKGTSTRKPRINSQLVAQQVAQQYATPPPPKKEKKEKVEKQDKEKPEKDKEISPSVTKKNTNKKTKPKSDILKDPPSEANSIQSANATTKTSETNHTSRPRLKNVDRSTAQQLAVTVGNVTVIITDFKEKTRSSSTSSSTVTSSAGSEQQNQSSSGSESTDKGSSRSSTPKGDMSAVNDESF

The next assay deals with T7, OGT1 (human), O15294.
T7 chain: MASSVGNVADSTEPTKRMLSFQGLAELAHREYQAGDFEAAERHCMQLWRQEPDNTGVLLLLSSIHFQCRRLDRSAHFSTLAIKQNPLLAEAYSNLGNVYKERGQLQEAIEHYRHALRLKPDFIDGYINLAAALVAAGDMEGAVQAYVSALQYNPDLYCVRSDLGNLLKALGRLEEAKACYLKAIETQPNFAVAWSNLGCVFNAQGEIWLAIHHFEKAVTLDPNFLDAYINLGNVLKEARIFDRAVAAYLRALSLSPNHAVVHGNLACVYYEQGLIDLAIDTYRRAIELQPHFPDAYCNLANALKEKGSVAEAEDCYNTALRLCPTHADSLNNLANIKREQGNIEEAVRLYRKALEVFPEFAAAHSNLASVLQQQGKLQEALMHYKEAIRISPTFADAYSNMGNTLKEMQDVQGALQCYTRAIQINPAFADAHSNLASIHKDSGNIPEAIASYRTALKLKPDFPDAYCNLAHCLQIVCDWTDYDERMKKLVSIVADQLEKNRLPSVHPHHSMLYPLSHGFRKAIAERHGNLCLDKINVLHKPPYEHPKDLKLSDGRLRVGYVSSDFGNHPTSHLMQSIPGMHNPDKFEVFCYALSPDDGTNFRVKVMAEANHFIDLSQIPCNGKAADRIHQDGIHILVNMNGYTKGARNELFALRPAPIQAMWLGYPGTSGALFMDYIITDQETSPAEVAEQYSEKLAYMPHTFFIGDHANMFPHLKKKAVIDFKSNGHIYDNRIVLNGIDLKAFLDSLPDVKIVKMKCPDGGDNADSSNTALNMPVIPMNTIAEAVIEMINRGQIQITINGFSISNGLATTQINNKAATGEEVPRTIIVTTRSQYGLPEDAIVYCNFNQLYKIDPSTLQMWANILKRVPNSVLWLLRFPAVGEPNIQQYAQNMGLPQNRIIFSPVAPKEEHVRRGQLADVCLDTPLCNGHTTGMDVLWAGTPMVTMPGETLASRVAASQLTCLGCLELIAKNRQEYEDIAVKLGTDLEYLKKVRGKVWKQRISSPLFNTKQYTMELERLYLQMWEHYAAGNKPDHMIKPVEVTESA
To be noted: remark: other sources report otherwise.

No constants are given. Whether binding was seen depends on the method and setting. Binding seen in cells or lysates may run through a third protein. A yes stands for co-enrichment or nearness to the bait. Other partners may have been found. For some assays here: A no says only that the protein was not detected with the bait.

B1: SMBT1 (protein, UniProt Q9UHJ3 1-866)
chain: MNGEQQLDADAGSGMEEVELSWEDYLEETGSTAVPYGSFKHVDTRLQNGFAPGMKLEVAVRTDPETYWVATVITTCEQLLLLRYDGYGEDRRADFWCDIRKADLYPIGWCEQNKKTLEAPEGIRDKVSDWDEFLRQTLIGACSPPVPLLEGLRNGRNPLDLIAPGSRLECQAFQDSLSTWIVTVVENIGGRLKLRYEGLESSDNYEHWLYYLDPFLHHVGWAAQQGYELQPPSAIRHLKNEAEWQEILAKVKEEEEEPLPSYLFKDKQVIGIHTFSVNMKLEAVDPWSPFGISPATVVKVFDEKYFLVEMDDLRPENHARRSFVCHADSPGIFPVQWSLKNGLHISPPPGYPSQDFDWADYLKQCGAEAAPQRCFPPLISEHEFKENMKLEAVNPILPEEVCVATITAVRGSYLWLQLEGSKKPIPECIVSVESMDIFPLGWCETNGHPLSTPRRARVYKQRKIAVVQPEKQVPSSRTVHEGLRNQELNSTESVMINGKYCCPKIYFNHRCFSGPYLNKGRIAELPQCVGPGNCVLVLREVLTLLINAAYKPSRVLRELQLDKDSVWHGCGEVLKAKYKGKSYRATVEIVKTADRVTEFCRQTCIKLECCPNLFGPRMVLDKCSENCSVLTKTKYTHYYGKKKNKRIGRPPGGHSNLACALKKASKRRKRRKNVFVHKKKRSSASVDNTPAGSPQGSGGEDEDDPDEGDDDSLSEGSTSEQQDELQEESEMSEKKSCSSSPTQSEISTSLPPDRQRRKRELRTFSFSDDENKPPSPKEIRIEVAERLHLDSNPLKWSVADVVRFIRSTDCAPLARIFLDQEIDGQALLLLTLPTVQECMDLKLGPAIKLCHHIERIKFAFYEQFAN
As for B1, in the assay with YY1 (human), the binding result is on record as “no binding”.

B2: DCAF7 (protein, UniProt P61962 1-342)
chain: MSLHGKRKEIYKYEAPWTVYAMNWSVRPDKRFRLALGSFVEEYNNKVQLVGLDEESSEFICRNTFDHPYPTTKLMWIPDTKGVYPDLLATSGDYLRVWRVGETETRLECLLNNNKNSDFCAPLTSFDWNEVDPYLLGTSSIDTTCTIWGLETGQVLGRVNLVSGHVKTQLIAHDKEVYDIAFSRAGGGRDMFASVGADGSVRMFDLRHLEHSTIIYEDPQHHPLLRLCWNKQDPNYLATMAMDGMEVVILDVRVPCTPVARLNNHRACVNGIAWAPHSSCHICTAADDHQALIWDIQQMPRAIEDPILAYTAEGEINNVQWASTQPDWIAICYNNCLEILRV
Turning to B2, the binding entry with CSK21 (human), with PCGF6 (human), in the assay with YAF2 (human), in the assay with PCGF3 (human), with CBX4 (human) and with CSK22 (human) was “binds” each time. The binding result with CBX6 (human), in the assay with RYBP (human), with RING1 (human), in the assay with PCGF5 (human), with CBX8 (human) and with RING2 (human) was “binds” throughout.

B3: FOXK2, Q01167 1-660 (protein)
chain: MAAAAAALSGAGTPPAGGGAGGGGAGGGGSPPGGWAVARLEGREFEYLMKKRSVTIGRNSSQGSVDVSMGHSSFISRRHLEIFTPPGGGGHGGAAPELPPAQPRPDAGGDFYLRCLGKNGVFVDGVFQRRGAPPLQLPRVCTFRFPSTNIKITFTALSSEKREKQEASESPVKAVQPHISPLTINIPDTMAHLISPLPSPTGTISAANSCPSSPRGAGSSGYKVGRVMPSDLNLMADNSQPENEKEASGGDSPKDDSKPPYSYAQLIVQAITMAPDKQLTLNGIYTHITKNYPYYRTADKGWQNSIRHNLSLNRYFIKVPRSQEEPGKGSFWRIDPASESKLIEQAFRKRRPRGVPCFRTPLGPLSSRSAPASPNHAGVLSAHSSGAQTPESLSREGSPAPLEPEPGAAQPKLAVIQEARFAQSAPGSPLSSQPVLITVQRQLPQAIKPVTYTVATPVTTSTSQPPVVQTVHVVHQIPAVSVTSVAGLAPANTYTVSGQAVVTPAAVLAPPKAEAQENGDHREVKVKVEPIPAIGHATLGTASRIIQTAQTTPVQTVTIVQQAPLGQHQLPIKTVTQNGTHVASVPTAVHGQVNNAAASPLHMLATHASASASLPTKRHNGDQPEQPELKRIKTEDGEGIVIALSVDTPPAAVREKGVQN
On to B3, for which, in the assay with OGT1 (human), O15294, the binding result was “no binding”.

Values taken from publication doi:10.1101/059964.
